Assay results taken from patent publication US11219898B2, “Molecular separation by diffusion using an EWOD device” (Sharp Life Science (EU) Limited, priority 2019, dated 2022).
At least one structure is not confirmed: it was looked up by name or label, or the drawing left a doubt.

Experiment: Diffusion of fluorescein or calcein through a droplet interface bilayer in an AM-EWOD device
Format: physicochemical
Conditions: for Fluorescence from the buffer containing droplet after DIB formation: 100 μM dye droplet, excitation 494 nm, emission 515 nm
Procedure: An investigation of the transport of aqueous phase elements between droplets suspended in a non-aqueous supporting medium is conducted. Phospholipid stabilized water in oil droplets are dispensed within an AM-EWOD device. Such droplets are used to produce droplet interface bilayers (DIBs) by the bringing together of individual droplets within the AM-EWOD device. DIBs are used to study diffusion of a solute across the bilayer membrane, as well as to study active transport through pores or ion channels formed in the DIB. In a first experiment, diffusion of fluorescein or calcein through a bilayer is investigated. Under conditions of neutral pH, calcein, a derivative of fluorescein, is generally more polar than fluorescein. […] Thus, fluorescein may more readily diffuse through a bilayer, whereas calcein may not. Three populations of droplets are dispensed within an AM-EWOD device. A first population contains buffer, a second population contains fluorescein at 100 μM concentration, and a third population contains calcein at 100 μM concentration. Droplets containing buffer are brought into contact respectively with droplets containing fluorescein or calcein, under control of the AM-EWOD device. Fluorescence intensity is determined at time t0, t1 (30 minutes) and t2 (60 minutes), with excitation wavelength 494 nm and emission wavelength 515 nm.

In the case of O=C1OC2(c3ccc(O)cc3Oc3cc(O)ccc32)c2ccccc21 [fluorescein], the “Fluorescence from the buffer containing droplet after DIB formation” value (after 30 minutes) was “fluorescence could be detected”, the “Fluorescence from the buffer containing droplet after DIB formation” value (after 60 minutes) was “fluorescence intensity had increased” and the “Diffusion across the bilayer” value (summary of results) was “selective diffusion”.
